In US7030231 (University of California, dated 2006) one finds binding data, which are given here for 2 molecules.

Results are given in words; binding and its absence hold for the method and conditions named. Some entries that bind do so weakly or less than the wild type. Where a sequence is shown, tags or fusion partners need not be part of it.

This test addresses T1, His-tagged MT-SP1 protease domain (refolded, autoactivated, purified on p-aminobenzamidine resin) (human) (UniProt Q9Y5Y6).
T1 sequence 1: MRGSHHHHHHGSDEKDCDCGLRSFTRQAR
T1 sequence 2: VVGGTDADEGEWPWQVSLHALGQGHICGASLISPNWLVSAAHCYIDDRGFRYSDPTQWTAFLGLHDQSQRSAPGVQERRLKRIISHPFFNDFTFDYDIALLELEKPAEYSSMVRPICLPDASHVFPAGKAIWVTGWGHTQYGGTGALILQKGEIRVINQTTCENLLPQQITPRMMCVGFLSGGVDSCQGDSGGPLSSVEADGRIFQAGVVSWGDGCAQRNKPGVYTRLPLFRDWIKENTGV
In words: enzyme inhibition assay, Spectrozyme tPA.

“ecotin (wild-type) (from UniProt P23827 21-162)”: the binding result is given as “binds”.

B1: ecotin M84R/M85R (other, E. coli (purified from E. coli), UniProt P23827 21-162, looked up)
chain: AESVQPLEKIAPYPQAEKGMKRQVIQLTPQEDESTLKVELLIGQTLEVDCNLHRLGGKLENKTLEGWGYDYYVFDKVSSPVSTRRACPDGKKEKKFVTAYLGDAGMLRYNSKLPIVVYTPDNVDVKYRVWKAEEKIDNAVVR
notes: They probably count on mature ecotin, not on the precursor with its signal peptide
On to B1, for which the binding entry is “binds”.
